In PubChem BioAssay AID1487 (National Center for Advancing Translational Sciences (NCATS), 2009) one finds AC50 data, which are given here for 52 compounds.

As a reminder, the AC50 is the midpoint of the concentration-response curve, whichever way the signal moves.

Values joined by “and” are separate entries in the source; they are usually repeats but may differ in a detail not shown here. Equal entries are not always repeated. Some of the results follow. These are further read-outs of the screen, such as a control signal, another cell line or another target. No call is given for them. The list favours compounds with an active or inconclusive main result. Potencies come from curve fits of mixed quality, noted in brackets.

This experiment in a line: qHTS Assay for Modulators of Lamin A Splicing. Conditions: HeLa LMNA splicing GFP/RFP minigene ratio, 48 h. The method, boiled down: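 S3 HeLa cells stably expressing lamin A-EGFP splicing minigene plus DsRed2, 600 cells/well, 48 h compound exposure at 37C. Laser-scanning cytometry; analysed as GFP (500-530 nm)/RFP (575-640 nm) total intensity ratio; 0.5% DMSO vehicle.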
(In general: In qHTS, concentration-response curves come from the screen itself.)

Where [1] appears, read: measured here: RFP viability control channel.
[2] abbreviates: measured here: GFP splicing reporter channel.

As for `CCc1ccc(CNC(=O)C(=O)NCC2CCCO2)cc1` (centres undefined), under setting [1], the half-maximal activity concentration (AC50) was 0.0708 µM [falling, full curve, poor fit].
As to `CC/C(=N\NC(=S)Nc1ccc(OC)cc1)c1ccc(OC(F)F)cc1`, the concentration at half-maximal activity (AC50) runs as follows: under setting [2], 31.6 µM [rising, single point]; under setting [1], 35.5 µM [rising, single point].
On to `C=CCn1c(SCC(=O)NCC)nnc1-c1cc2c(s1)CCC(CC)C2` (centres undefined), for which the AC50 is, setting by setting: under setting [2], 15.8 µM [rising, single point]; under setting [1], 25.1 µM [rising, single point].
Regarding `CC1=CC(C)(C)Nc2ccc(OC(=O)CN3C(=O)CCC3=O)cc21`, the concentration at half-maximal activity (AC50) is, setting by setting: under setting [2], 35.5 µM [falling, single point]; under setting [1], 35.5 µM [falling, single point].
For the compound `CCn1cc(C(=O)OCC(=O)Nc2c(C)cccc2C)c(=O)c2ccc(C)nc21`, the concentration at half-maximal activity (AC50) under setting [2] was 0.0501 µM [rising, partial curve, poor fit] and the AC50 under setting [1] is 0.355 µM [rising, partial curve, poor fit].
As for `COc1cccc(NC(=O)CCC(=O)Nc2cccc(OC)c2)c1`, the half-maximal activity concentration (AC50) under setting [2] is 6.31 µM [falling, single point].
In the case of `COc1ccc(CN2C(=O)CC(Cc3cc(C)cc(C)c3)C2=O)cc1OC` (centres undefined), under setting [1], the AC50 was 11.2 µM [rising, single point].
The same measure, in the same setting: as for `O=C(Nc1cccc(Cl)c1)Nc1nccs1`, the figure is 31.6 µM [rising, single point].
For the compound `Cc1cc(C)cc(NC(=S)NCCSc2ccc(Cl)cc2)c1`, the AC50 is 35.5 µM [rising, single point] under setting [2] and 35.5 µM [rising, single point] under setting [1].
On to `c1ccc(-c2onc3cc4c(cc23)OCCO4)cc1`, for which the concentration at half-maximal activity (AC50) was 17.8 µM [rising, single point] under setting [2] and 31.6 µM [rising, single point] under setting [1].
In the case of `CCCc1cc2c(cc1NC(=O)c1ccc(C(C)(C)C)cc1)OCO2`, the AC50 under setting [1] was 10 µM [rising, partial curve, poor fit].
With `COc1cc(C(=O)O)c([N+](=O)[O-])c(OC)c1OC`, the AC50 under setting [2] is 4.47 µM [rising, partial curve].
Take `Cc1ccc(CN(C)CC(=O)Nc2ccc3c(c2)CCC3)cc1`: under setting [1], the AC50 is 11.2 µM [rising, partial curve].
`CCc1ccc(NC(=O)N2CCC(N3CCN(Cc4ccc(C)cc4)C(=O)C3=O)CC2)cc1`: the concentration at half-maximal activity (AC50) is, setting by setting: under setting [2], 0.2 µM [falling, full curve, poor fit]; under setting [1], 0.112 µM [falling, full curve, poor fit].
`CCNc1ncc2nc(-c3ccc(OC)cc3)c(=O)n(CCc3ccccc3)c2n1`: the concentration at half-maximal activity (AC50) under setting [2] was 22.4 µM [falling, single point] and the AC50 under setting [1] is 25.1 µM [falling, single point].
Take `N#Cc1ccc(NC(=O)N2CCC(c3nc4c(nnn4Cc4cccc(Cl)c4)c(=O)[nH]3)CC2)cc1`: the AC50 under setting [2] is 12.6 µM [rising, single point].
On the same count and under the same terms, next, `CC(=O)OC1CC[C@]2(C)C(CC[C@@]3(C)C2C(=O)C=C2C4C(C)C(C)CC[C@@]4(C(=O)O)CCC23C)C1(C)C` (some centres undefined): 12.6 µM [rising, partial curve, poor fit].
For the compound `CCC(NC(=O)c1ccccc1NC(=O)c1ccccc1)C(=O)NNC(=O)CSc1nc2ccccc2o1` (centres undefined), under setting [1], the AC50 was 10 µM [rising, partial curve].
Same read-out and setting: next, `C=CCn1c(-c2ccccc2)nc(=S)c2c1CC(C)(C)OC2`: 0.282 µM [falling, full curve, poor fit].
For the compound `COc1ccccc1NC(=S)N(Cc1ccccc1)Cc1ccccn1`, the half-maximal activity concentration (AC50) under setting [2] is 12.6 µM [rising, partial curve, poor fit] and the AC50 under setting [1] was 14.1 µM [rising, partial curve, poor fit].
With `O=C(NCc1ccc(F)cc1)c1ccc2c(c1)nc1n2CCCCC1`, under setting [2], the AC50 is 0.316 µM [rising, partial curve, poor fit].
Take `O=C(C1CCCN(S(=O)(=O)c2ccccc2)C1)N1CCCCCC1` (centres undefined): the half-maximal activity concentration (AC50) by setting is: under setting [2], 12.6 µM [rising, partial curve]; under setting [1], 31.6 µM [rising, partial curve].
As to `Cc1ccc(C)c(NC(=O)c2cc(-c3ccccc3)nn2-c2ccccc2)c1`, the concentration at half-maximal activity (AC50) was 17.8 µM [rising, single point] under setting [2] and 35.5 µM [rising, single point] under setting [1].
With `CN(C)C(=O)c1ccc(-c2ccc3ncnc(Nc4ccc(F)cc4)c3c2)cc1`, the AC50 under setting [2] is 11.2 µM [falling, partial curve] and the AC50 under setting [1] was 15.8 µM [falling, partial curve, poor fit].
With `CCCS(=O)(=O)N1CCC(N2CCN(Cc3ccc(F)cc3)C(=O)C2=O)CC1`, the AC50 reads like this: under setting [2], 1.12 µM [rising, full curve]; under setting [1], 1.12 µM [rising, full curve].
Consider `CCOC(=O)C1C(=O)C=C(c2cccc(NS(C)(=O)=O)c2)CC1c1ccco1` (centres undefined), for which the AC50 under setting [1] is 12.6 µM [rising, single point].
Regarding `O=C(c1ccc2c(c1)OCO2)N1CCN=C1SCc1ccccc1`, under setting [1], the concentration at half-maximal activity (AC50) was 10 µM [rising, partial curve, poor fit].
Consider `O=C(O)CNS(=O)(=O)/C=C/c1ccccc1`, for which the concentration at half-maximal activity (AC50) under setting [2] is 6.31 µM [falling, single point].
On to `CCOc1ccc(C2C(=O)N(C3CCCCC3)CC(=O)N2CCC2=CCCCC2)cc1OC` (centres undefined), for which the concentration at half-maximal activity (AC50) reads like this: under setting [2], 31.6 µM [rising, partial curve, poor fit]; under setting [1], 12.6 µM [rising, partial curve, poor fit].
As to `Cc1ccc2c(c1)cc(CN(C(=O)N1CCOCC1)C1CCCC1)c1nnnn12`, the AC50 is 0.0501 µM [falling, full curve, poor fit] under setting [2] and 0.0794 µM [falling, full curve, poor fit] under setting [1].
Turning to `CC(=O)Nc1ccc(S(=O)(=O)Nc2cccc(-c3ccc(N4CCCCCC4)nn3)c2)cc1`, the AC50 under setting [2] is 0.00891 µM [falling, full curve, poor fit] and the half-maximal activity concentration (AC50) under setting [1] was 0.00794 µM [falling, full curve, poor fit].
As to `CCOc1ccc(-c2cnc(SCC(N)=O)nc2N)cc1`, under setting [2], the AC50 is 35.5 µM [rising, single point].
In the case of `Cn1cc(CN2CCCC(CO)(Cc3cccc(Cl)c3)C2)cn1` (centres undefined), the concentration at half-maximal activity (AC50) under setting [1] was 0.0282 µM [falling, full curve, poor fit].
The same measure, in the same setting: as for `CCN(C(=O)CSc1nc2ccccc2c(=O)n1-c1cccc(C)c1)C1CCS(=O)(=O)C1` (centres undefined), the figure is 4.47 µM [rising, partial curve].
With `COc1cccc2c1C(=O)c1c(O)c3c(c(O)c1C2=O)C[C@@](O)(C(C)=O)C[C@@H]3O[C@H]1C[C@H](N)[C@H](O)[C@H](C)O1`, the AC50 under setting [2] was 3.55 µM [falling, partial curve] and 5.62 µM [falling, full curve].
Take `O=C(NCC1CCCO1)c1ccc2c(=O)n(CC3CCCO3)c(SCC(=O)N3CCCC3)nc2c1` (centres undefined): the AC50 under setting [1] was 1.26 µM [rising, single point].
On the same count and under the same terms, next, `O=C(Cn1cnc2c(cnn2-c2ccccc2)c1=O)Nc1ccc(S(=O)(=O)N2CCOCC2)cc1`: 14.1 µM [rising, single point].
Same read-out and setting: next, `O=C(Oc1cccc(-n2cnnn2)c1)c1sc2ccccc2c1Cl`: 5.62 µM [rising, single point]; `S=C(Nc1ccc(Oc2ccccc2)cc1)N1CCN(c2ccccn2)CC1`: 0.2 µM [rising, full curve, poor fit].
In the case of `CC(C)CC(COCc1ccc(Cl)cc1)N1CCN(C(=O)c2cccc(C(F)(F)F)c2)CCC1=O` (centres undefined), the half-maximal activity concentration (AC50) reads like this: under setting [2], 35.5 µM [rising, single point]; under setting [1], 25.1 µM [rising, single point].
In the case of `O=C(NCc1cccs1)C1CCN(c2ccc(S(=O)(=O)N3CCOCC3)cc2Cl)CC1`, the half-maximal activity concentration (AC50) is 8.91 µM [rising, partial curve] under setting [2] and 7.94 µM [rising, partial curve] under setting [1].
Regarding `CCN(CC)S(=O)(=O)c1ccc(N2CCOCC2)c(NC(=O)Cc2ccc(Cl)cc2)c1`, the concentration at half-maximal activity (AC50) under setting [1] is 15.8 µM [rising, single point].
For `O=C(NCc1ccco1)c1nn2c(C(F)(F)F)cc(-c3cccs3)nc2c1Br`, under setting [2], the half-maximal activity concentration (AC50) was 31.6 µM [rising, single point].
As for `C=CCn1c(SCC(=O)Nc2ccc3c(c2)OCO3)nnc1-c1ccccc1OC`, under setting [1], the half-maximal activity concentration (AC50) was 11.2 µM [rising, single point].
On the same count and under the same terms, as for `CCc1nc(N2CCC(C)CC2)c2oc3ccccc3c2n1`, the figure is 35.5 µM [rising, single point].
Consider `COc1ccc(-c2cc3nc(C)cc(N4CC(C)CC(C)C4)n3n2)cc1` (centres undefined), for which, under setting [1], the AC50 is 35.5 µM [rising, single point].
On the same count and under the same terms, next, `Cc1ccc(Cn2nnc3c(=O)n(CC(=O)NCc4ccc5c(c4)OCO5)cnc32)cc1`: 35.5 µM [rising, single point]; `Clc1ccc(-c2csc(-c3ccncc3)n2)cc1`: 0.01 µM [falling, full curve, poor fit].
`COC(=O)c1ccc(COc2ccccc2/C=C(\C#N)C(=O)Nc2c(C)cc(C)cc2C)cc1`: the AC50 was 3.98 µM [falling, partial curve, poor fit] under setting [2] and 20 µM [falling, single point] under setting [1].
In the case of `CCNc1ncc2nc(-c3ccccc3)c(=O)n(Cc3cccs3)c2n1`, the half-maximal activity concentration (AC50) is, setting by setting: under setting [2], 5.01 µM [falling, partial curve]; under setting [1], 11.2 µM [falling, partial curve].
As to `COc1ccc(C(C)=O)cc1CSc1nnc(Nc2ccccc2C)s1`, the AC50 runs as follows: under setting [2], 11.2 µM [rising, partial curve]; under setting [1], 25.1 µM [rising, partial curve].
For the compound `COc1ccc(-c2cc(C(F)(F)F)nc(SCC(=O)NCc3cccs3)n2)cc1OC`, the concentration at half-maximal activity (AC50) was 11.2 µM [rising, partial curve, poor fit] under setting [2] and 12.6 µM [rising, single point] under setting [1].
